Test results taken from article PMC9851907, “A single 2′-O-methylation of ribosomal RNA gates assembly of a functional ribosome” (Nature Structural & Molecular Biology, 2022).
Where two headings read alike, the source gives them in different places. These are yes or no findings as the source states them, for the method shown. Some results given as binding are weak or reduced against the parent protein; the word gives no strength.

Chains of the proteins cited; added tags and fusions are not shown.
UniProt P53742: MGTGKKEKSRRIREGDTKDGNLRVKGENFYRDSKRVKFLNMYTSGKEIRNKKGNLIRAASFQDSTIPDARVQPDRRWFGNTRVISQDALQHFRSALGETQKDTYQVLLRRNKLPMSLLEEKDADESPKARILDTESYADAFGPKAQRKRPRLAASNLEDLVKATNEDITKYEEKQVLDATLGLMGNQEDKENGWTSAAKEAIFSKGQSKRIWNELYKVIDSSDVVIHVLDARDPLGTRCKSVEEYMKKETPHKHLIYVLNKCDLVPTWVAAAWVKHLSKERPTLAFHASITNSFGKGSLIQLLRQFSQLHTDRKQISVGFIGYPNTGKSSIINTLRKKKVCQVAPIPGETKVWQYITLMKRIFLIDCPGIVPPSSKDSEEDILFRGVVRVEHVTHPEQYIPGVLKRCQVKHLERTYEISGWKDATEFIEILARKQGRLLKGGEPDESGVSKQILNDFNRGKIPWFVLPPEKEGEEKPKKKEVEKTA
UniProt P0CX53: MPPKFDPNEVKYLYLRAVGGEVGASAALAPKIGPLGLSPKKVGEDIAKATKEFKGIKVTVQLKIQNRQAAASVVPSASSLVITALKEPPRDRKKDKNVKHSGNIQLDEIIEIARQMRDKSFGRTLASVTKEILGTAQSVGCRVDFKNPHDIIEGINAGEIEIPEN

Assays:
[1] = biological target: Nog2-3xFLAG-6xHis (S. cerevisiae (endogenous locus in BY4741-derived strain AJY4427)) (UniProt P53742); experiment: cryo-EM structure; pre-60S particle with unmodified G2922, immunopurified through Nog2-3xFLAG from spb1-D52A cells; 2.9 Å overall; proteins are members of one ribonucleoprotein particle
[2] = biological target: Nog2-3xFLAG-6xHis (S. cerevisiae (endogenous locus in BY4741-derived strain AJY4427)) (UniProt P53742); experiment: as above; remark: listed apart in the source

Row | binding [1] | binding [2] | Molecule
1 |  | binds | Bud20 (protein, UniProt Q08004 1-166) MGRYSVKRYKTKRRTRDLDLIYNDLSTKESVQKLLNQPLDETKPGLGQHYCIHCAKYMETAIALKTHLKGKVHKRRVKELRGVPYTQEVSDAAAGYNLNKFLNRVQEITQSVGPEKESNEALLKEHLDSTLANVKTTEPTLPWAAADAEANTAAVTEAESTASAST
2 |  | binds | Alb1 (protein, UniProt P47019 1-175) MPSKNSINRPKLTSNLHHKVHSLNKKRAQRERAGLLKPARSSVNSKSGEIKSVALDLYFQNKKNESQNSTAVTLQNASSSPASITTRTLSKKRAKKIERNLKYATQRKLLVDASAKLEDEMDIDLDGGKKVKENEKKSSLTLVKEALWSVIDDTASQGLIIENGQGTTLGGPFFP

Second part, the molecule before the results:

Row | Molecule | binding [1] | binding [2]
3 | uL11 (from UniProt P0CX53 1-165) | binds | 
4 | Rsa4 (protein, UniProt P25382 1-515) MSTLIPPPSKKQKKEAQLPREVAIIPKDLPNVSIKFQALDTGDNVGGALRVPGAISEKQLEELLNQLNGTSDDPVPYTFSCTIQGKKASDPVKTIDITDNLYSSLIKPGYNSTEDQITLLYTPRAVFKVKPVTRSSSAIAGHGSTILCSAFAPHTSSRMVTGAGDNTARIWDCDTQTPMHTLKGHYNWVLCVSWSPDGEVIATGSMDNTIRLWDPKSGQCLGDALRGHSKWITSLSWEPIHLVKPGSKPRLASSSKDGTIKIWDTVSRVCQYTMSGHTNSVSCVKWGGQGLLYSGSHDRTVRVWDINSQGRCINILKSHAHWVNHLSLSTDYALRIGAFDHTGKKPSTPEEAQKKALENYEKICKKNGNSEEMMVTASDDYTMFLWNPLKSTKPIARMTGHQKLVNHVAFSPDGRYIVSASFDNSIKLWDGRDGKFISTFRGHVASVYQVAWSSDCRLLVSCSKDTTLKVWDVRTRKLSVDLPGHKDEVYTVDWSVDGKRVCSGGKDKMVRLWTH |  | binds
